According to article PMC5703966, “Systemic clearance and brain distribution of carbazole-based cyanine compounds as Alzheimer’s disease drug candidates” (Scientific Reports, 2017):

Test: in vitro
Settings: human, Caco-2

Papp A→B at 1 μM: 0.48 ± 0.09 ×10⁻⁶ cm/s
SMILES: CC(C)NCC(O)COc1ccc(CC(N)=O)cc1 (stereo not shown) [Atenolol]
